Some of the results follow.
What was measured:
Assay in all cases: log2 fold change, soluble protein after heating vs DMSO (PISA); higher = thermal stabilisation; K562 lysate, 10 uM; active = over 0.2 and 3.5 SD of the protein, either way, in both replicates (recomputed)
erlotinib = compound: C#Cc1cccc(Nc2ncnc3cc(OCCOC)c(OCCOC)cc23)c1 [erlotinib]
Method in brief: (§1)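 The values are log-two fold changes in thermal stability compared with solvent controls and come from duplicates. They were obtained by TMTpro 16plex LC-MS/MS, with channel sums equalised, on the supernatant after 21,000xg for 90 min. That supernatant came from crude K562 extract at 1 mg/mL protein treated with 10 μM compound for 30 min, heated for 3 min across 48°C-58°C, pooled and brought to 0.5% NP-40 at 4°C.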

Protein sequences, listed by entry. Tags and fused reporters are not part of them. Lines headed by an entry give the natural chain unless they say otherwise; changes in a name come on top.
UniProt Q96I24: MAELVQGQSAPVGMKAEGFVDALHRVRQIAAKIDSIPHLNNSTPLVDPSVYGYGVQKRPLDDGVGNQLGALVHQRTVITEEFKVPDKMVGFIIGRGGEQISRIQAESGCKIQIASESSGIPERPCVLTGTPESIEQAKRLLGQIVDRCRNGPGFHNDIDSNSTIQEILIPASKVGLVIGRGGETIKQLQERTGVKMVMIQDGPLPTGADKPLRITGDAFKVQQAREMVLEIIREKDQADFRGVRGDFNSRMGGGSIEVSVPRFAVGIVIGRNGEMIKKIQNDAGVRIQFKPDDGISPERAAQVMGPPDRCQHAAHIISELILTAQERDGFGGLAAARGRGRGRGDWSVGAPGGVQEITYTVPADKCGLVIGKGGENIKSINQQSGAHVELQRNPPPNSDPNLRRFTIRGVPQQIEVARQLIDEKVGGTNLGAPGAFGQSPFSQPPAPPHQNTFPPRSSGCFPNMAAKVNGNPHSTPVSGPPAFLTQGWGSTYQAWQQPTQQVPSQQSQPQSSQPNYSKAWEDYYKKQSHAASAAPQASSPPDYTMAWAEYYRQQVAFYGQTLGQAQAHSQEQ
UniProt P32456: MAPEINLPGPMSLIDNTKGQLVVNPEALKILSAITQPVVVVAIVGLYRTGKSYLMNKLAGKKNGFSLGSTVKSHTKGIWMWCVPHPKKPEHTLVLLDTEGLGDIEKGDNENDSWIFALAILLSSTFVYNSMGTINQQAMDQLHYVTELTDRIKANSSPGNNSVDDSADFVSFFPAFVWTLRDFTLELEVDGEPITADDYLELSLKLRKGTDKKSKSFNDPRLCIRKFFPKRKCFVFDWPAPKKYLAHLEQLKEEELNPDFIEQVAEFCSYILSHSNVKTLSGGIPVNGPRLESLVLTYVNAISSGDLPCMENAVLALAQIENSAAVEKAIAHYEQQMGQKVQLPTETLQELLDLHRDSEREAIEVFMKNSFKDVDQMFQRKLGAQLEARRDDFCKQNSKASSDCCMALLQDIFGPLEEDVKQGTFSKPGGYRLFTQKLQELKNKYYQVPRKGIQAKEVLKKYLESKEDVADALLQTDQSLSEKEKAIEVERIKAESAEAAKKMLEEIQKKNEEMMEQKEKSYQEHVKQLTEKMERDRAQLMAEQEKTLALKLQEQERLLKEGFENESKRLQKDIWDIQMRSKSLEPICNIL
UniProt Q8IVH2: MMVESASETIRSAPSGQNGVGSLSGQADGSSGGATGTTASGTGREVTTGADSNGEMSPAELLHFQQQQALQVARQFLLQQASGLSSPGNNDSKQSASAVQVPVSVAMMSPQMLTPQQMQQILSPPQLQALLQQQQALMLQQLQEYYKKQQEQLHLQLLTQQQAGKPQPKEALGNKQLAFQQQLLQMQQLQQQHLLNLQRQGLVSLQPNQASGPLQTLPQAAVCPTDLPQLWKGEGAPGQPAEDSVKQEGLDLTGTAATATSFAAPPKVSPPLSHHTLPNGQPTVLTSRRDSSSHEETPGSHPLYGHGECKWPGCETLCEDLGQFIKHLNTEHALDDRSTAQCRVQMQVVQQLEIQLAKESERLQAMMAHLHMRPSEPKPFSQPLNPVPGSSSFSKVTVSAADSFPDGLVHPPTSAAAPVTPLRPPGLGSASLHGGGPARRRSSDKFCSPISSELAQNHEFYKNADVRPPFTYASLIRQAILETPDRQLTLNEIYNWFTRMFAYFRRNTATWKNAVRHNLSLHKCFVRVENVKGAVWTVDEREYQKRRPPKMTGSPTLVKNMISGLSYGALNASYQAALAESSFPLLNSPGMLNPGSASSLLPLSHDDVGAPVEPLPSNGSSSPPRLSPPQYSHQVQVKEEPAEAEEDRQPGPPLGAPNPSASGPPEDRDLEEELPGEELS
UniProt Q9BZ67: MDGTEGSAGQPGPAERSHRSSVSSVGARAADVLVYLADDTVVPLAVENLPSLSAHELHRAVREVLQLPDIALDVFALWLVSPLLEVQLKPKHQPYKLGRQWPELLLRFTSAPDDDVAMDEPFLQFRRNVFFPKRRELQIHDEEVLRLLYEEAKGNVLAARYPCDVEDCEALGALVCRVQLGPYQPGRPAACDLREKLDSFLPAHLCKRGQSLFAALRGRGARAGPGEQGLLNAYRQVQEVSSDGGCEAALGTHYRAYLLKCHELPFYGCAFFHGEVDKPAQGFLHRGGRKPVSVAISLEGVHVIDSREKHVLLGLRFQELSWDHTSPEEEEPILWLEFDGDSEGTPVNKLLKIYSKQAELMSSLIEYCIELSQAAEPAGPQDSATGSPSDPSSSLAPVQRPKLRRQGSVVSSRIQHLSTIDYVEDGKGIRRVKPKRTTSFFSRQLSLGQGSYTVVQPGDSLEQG
UniProt Q99988: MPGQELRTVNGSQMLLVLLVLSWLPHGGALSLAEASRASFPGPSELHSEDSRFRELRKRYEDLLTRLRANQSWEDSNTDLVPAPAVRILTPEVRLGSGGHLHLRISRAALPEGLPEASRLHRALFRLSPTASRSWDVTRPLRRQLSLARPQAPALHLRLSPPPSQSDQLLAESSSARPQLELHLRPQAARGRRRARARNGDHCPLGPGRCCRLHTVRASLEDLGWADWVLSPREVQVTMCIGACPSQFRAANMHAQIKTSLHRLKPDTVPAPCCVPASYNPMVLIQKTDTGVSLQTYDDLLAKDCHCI
UniProt O43716: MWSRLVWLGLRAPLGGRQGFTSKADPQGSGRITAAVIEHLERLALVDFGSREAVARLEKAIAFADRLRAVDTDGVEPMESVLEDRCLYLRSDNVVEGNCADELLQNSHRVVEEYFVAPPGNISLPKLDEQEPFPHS
UniProt Q8TET4: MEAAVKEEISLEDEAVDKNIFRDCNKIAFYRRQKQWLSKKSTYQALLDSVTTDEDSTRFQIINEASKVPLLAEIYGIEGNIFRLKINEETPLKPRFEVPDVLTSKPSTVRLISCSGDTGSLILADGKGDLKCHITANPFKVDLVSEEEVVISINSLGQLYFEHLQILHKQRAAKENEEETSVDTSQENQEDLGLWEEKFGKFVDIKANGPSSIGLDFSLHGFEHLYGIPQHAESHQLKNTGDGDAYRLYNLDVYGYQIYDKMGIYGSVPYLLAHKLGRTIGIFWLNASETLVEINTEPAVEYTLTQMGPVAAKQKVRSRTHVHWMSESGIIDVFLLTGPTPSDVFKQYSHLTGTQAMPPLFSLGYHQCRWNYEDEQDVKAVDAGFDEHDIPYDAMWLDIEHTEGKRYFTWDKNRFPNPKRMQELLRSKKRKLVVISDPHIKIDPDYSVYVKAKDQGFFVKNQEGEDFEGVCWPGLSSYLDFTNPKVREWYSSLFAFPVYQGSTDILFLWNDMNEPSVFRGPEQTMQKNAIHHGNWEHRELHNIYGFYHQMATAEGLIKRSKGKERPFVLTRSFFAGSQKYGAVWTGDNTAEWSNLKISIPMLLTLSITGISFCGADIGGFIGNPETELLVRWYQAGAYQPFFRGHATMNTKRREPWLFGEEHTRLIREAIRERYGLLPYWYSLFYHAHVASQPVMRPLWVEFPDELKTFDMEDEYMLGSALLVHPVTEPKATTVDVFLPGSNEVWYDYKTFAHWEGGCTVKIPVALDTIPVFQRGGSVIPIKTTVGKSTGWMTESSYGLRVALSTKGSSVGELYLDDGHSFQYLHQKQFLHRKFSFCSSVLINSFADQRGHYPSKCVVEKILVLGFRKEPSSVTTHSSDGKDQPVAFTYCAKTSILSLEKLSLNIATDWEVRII
UniProt Q9HCG7: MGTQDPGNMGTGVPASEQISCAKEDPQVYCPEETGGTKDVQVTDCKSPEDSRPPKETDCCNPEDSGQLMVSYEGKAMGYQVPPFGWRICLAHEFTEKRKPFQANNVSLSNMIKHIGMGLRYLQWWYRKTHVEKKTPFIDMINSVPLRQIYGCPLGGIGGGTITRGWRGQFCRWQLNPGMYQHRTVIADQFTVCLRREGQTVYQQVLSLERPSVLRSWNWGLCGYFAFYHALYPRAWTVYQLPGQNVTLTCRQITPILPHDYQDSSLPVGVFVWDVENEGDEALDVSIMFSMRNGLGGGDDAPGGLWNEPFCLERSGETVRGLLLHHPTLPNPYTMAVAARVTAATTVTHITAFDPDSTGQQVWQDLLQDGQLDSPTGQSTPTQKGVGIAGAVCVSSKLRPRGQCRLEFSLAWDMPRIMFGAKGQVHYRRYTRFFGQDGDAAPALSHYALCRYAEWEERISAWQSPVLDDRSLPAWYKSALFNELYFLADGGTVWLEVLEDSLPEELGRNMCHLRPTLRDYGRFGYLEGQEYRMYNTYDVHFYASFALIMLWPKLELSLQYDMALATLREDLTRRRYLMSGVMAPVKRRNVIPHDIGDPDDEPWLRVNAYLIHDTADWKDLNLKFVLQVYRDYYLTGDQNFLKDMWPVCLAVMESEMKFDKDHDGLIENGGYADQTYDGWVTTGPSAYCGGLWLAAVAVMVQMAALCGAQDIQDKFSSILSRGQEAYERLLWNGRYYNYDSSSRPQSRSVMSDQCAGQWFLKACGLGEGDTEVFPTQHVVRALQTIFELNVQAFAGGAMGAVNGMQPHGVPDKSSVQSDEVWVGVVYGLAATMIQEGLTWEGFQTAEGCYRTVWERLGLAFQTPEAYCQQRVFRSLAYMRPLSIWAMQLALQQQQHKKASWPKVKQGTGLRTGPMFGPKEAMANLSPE
UniProt Q9NZC3: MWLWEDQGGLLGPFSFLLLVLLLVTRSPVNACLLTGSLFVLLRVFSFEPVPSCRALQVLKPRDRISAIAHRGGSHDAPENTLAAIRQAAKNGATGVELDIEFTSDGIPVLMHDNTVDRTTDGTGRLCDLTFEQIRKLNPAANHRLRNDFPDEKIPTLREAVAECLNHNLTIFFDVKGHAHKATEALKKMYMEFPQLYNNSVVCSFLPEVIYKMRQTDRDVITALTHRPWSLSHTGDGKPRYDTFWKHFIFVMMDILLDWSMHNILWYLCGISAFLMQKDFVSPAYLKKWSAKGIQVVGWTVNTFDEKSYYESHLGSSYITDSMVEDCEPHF
UniProt Q8TB36: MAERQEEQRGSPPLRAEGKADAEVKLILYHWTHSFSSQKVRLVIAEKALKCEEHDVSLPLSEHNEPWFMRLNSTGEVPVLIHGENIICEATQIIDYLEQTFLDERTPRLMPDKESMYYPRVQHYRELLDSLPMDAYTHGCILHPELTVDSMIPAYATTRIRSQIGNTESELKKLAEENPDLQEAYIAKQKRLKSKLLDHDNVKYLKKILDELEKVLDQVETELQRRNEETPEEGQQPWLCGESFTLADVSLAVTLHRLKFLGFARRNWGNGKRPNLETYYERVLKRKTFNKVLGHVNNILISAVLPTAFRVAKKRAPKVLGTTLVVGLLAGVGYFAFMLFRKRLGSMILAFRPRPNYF

[1] = compound: C/C(=N\NC(=O)C1=CC(=CC=C1)S(=O)(=O)N2CCOCC2)/C3=C(C=CC(=C3)Cl)O
Method in brief: as §1

[2] = compound: C1=CC(=CC=C1C2=NC3=C(N2)C=C(C=C3)C(=O)N)OC4=CC=C(C=C4)Cl
Method in brief: as §1

[3] = compound: C1=CC2=C(C=CC(=C2)/C=C\3/C(=O)NC(=NCC4=CC=CS4)S3)N=C1
Method in brief: as §1

[4] = compound: C1=CC2=NC=CN=C2C=C1/C=C/3\C(=O)NC(=O)S3
Method in brief: as §1

[5] = compound: C1=CC=C(C=C1)C2=NC(=C(N2)C3=CC=NC=C3)C4=CC(=C(C=C4)Cl)O
Method in brief: as §1

[6] = compound: C1=CC=C2C(=C1)C3=NNC4=CC=CC(=C43)C2=O
Method in brief: as §1

[7] = compound: C1CCN(C1)C(=O)NC2=CC=CC(=C2)NC3=NC=C(C(=N3)NCCC4=CN=CN4)Br
Method in brief: as §1

[8] = compound: C1CN(CCC1(CC2=CC=C(C=C2)Cl)N)C3=NC=NC4=C3C=CN4
Method in brief: as §1

IRAK-1-4 Inhibitor I = compound: C1COCCN1CCN2C3=CC=CC=C3N=C2NC(=O)C4=CC(=CC=C4)[N+](=O)[O-] [IRAK-1-4 Inhibitor I]
Method in brief: as §1

ibrutinib = compound: C=CC(=O)N1CCC[C@@H](n2nc(-c3ccc(Oc4ccccc4)cc3)c3c(N)ncnc32)C1 [ibrutinib]
Method in brief: as §1

[9] = compound: CC(=O)c1cnc2ccc(-c3cc(Cl)c(O)c(Cl)c3)nc2c1N[C@H]1CC[C@H](CN(C)C)CC1
Method in brief: as §1

ralimetinib = compound: CC(C)(C)Cn1c(N)nc2ccc(-c3[nH]c(C(C)(C)C)nc3-c3ccc(F)cc3)nc21 [ralimetinib]
Method in brief: as §1

[10] = compound: CC(C)(O)CC(=O)NCCn1ccc2ncnc(Nc3ccc(Oc4cccc(C(F)(F)F)c4)c(Cl)c3)c21
Method in brief: as §1

[11] = compound: CC(C)C1=C2N=C(C=C(N2N=C1)NCC3=CC=CC=C3)NCCCCCCN
Method in brief: as §1

[12] = compound: CC1=C(C(CC(=O)N1)C2=CC=C(C=C2)C(F)(F)F)C(=O)NC3=C(C=C4C(=C3)C=NN4)F
Method in brief: as §1

[13] = compound: CC1=C(C2=C(C=C1)C(=O)C3=CC=CC=C3N2CCCN)C
Method in brief: as §1

[14] = compound: CC1=C(C=C(C=C1)NC(=O)C2=CC(=CC=C2)C(C)(C)C#N)NC3=CC4=C(C=C3)N=CN(C4=O)C
Method in brief: as §1

[15] = compound: CC1=C(C=C(C=C1)NC(=O)C2=CC(=CC=C2)N(C)C)NC(=O)C3=CC=C(C=C3)O
Method in brief: as §1

[16] = compound: CC1=CC=C(C=C1)SC2=C3C=C(SC3=CN=C2)C(=O)N
Method in brief: as §1

Measured: log2 fold change

FUBP3 (UniProt Q96I24)
inactive: erlotinib -0.023 | [1] 0.003 | [2] 0.04 | [3] 0.007 | [4] -0.009 | [5] -0.141 | [6] -0.033 | [7] -0.038 | [8] 0.003 | IRAK-1-4 Inhibitor I 0.023 | ibrutinib 0.024 | [9] 0.002 | ralimetinib 0.021 | [10] -0.051 | [11] 0.014 | [12] -0.018 | [13] 0.072 | [14] -0.149 | [15] -0.003 | [16] -0.018

GBP2 (UniProt P32456)
inactive: erlotinib -0.063 | [2] -0.022 | [5] -0.109 | [7] -0.011 | [8] 0.009 | IRAK-1-4 Inhibitor I 0 | [9] 0.109 | ralimetinib 0.015 | [10] -0.047 | [11] -0.092 | [13] 0.099 | [14] 0.073 | [15] -0.062 | [16] 0.102

FSIP2 (UniProt Q5CZC0)
inactive: erlotinib -0.148 | [2] 0.084 | [5] -0.109 | IRAK-1-4 Inhibitor I -0.044 | [9] -0.035 | ralimetinib -0.094 | [10] -0.104 | [11] 0.018 | [12] -0.048 | [13] -0.135 | [14] 0.104 | [15] 0.074 | [16] -0.209

FOXP4 (UniProt Q8IVH2)
inactive: erlotinib 0.107 | [1] 0.122 | [2] -0.024 | [3] 0.189 | [4] 0.005 | [5] 0.005 | [6] -0.064 | [7] -0.099 | [8] -0.048 | IRAK-1-4 Inhibitor I -0.004 | ibrutinib -0.1 | ralimetinib 0.039 | [10] -0.006 | [11] 0.09 | [12] 0.04 | [13] -0.186 | [15] 0.138

FRMD8 (UniProt Q9BZ67)
inactive: erlotinib -0.074 | [1] -0.053 | [2] 0.038 | [3] 0.016 | [4] 0.004 | [6] 0.008 | [7] 0.149 | [8] 0.011 | ibrutinib 0.136 | [11] -0.035 | [12] 0.12 | [13] 0 | [14] 0.11

GDI2 (UniProt Q5SX86)
inactive: erlotinib 0.123 | [1] 0.118 | [2] 0.007 | [3] 0.077 | [4] -0.087 | [5] 0.217 | [6] 0.147 | IRAK-1-4 Inhibitor I 0.098 | ibrutinib 0.158 | [9] -0.057 | ralimetinib 0.162 | [10] 0.089 | [11] -0.218 | [12] 0.259 | [13] -0.23 | [15] -0.031 | [16] -0.049

GDF15 (UniProt Q99988)
inactive: erlotinib -0.067 | [1] 0.018 | [2] 0.082 | [3] 0.016 | [5] 0.029 | [6] -0.056 | IRAK-1-4 Inhibitor I -0.07 | ralimetinib -0.003 | [10] 0.099 | [11] -0.002 | [12] -0.105 | [13] 0.068 | [14] 0.049 | [15] -0.027

GATC (UniProt O43716)
inactive: erlotinib 0.012 | [1] 0.076 | [2] -0.011 | [3] -0.017 | [5] -0.086 | [6] 0.022 | [7] -0.067 | [8] 0.162 | IRAK-1-4 Inhibitor I 0.012 | [9] 0.048 | ralimetinib 0.037 | [10] -0.004 | [11] -0.045 | [12] -0.038 | [13] -0.025 | [14] -0.082 | [15] 0.002 | [16] 0.148

GANC (UniProt Q8TET4)
inactive: erlotinib -0.045 | [2] 0.139 | [5] 0.025 | [7] -0.049 | [8] 0.118 | IRAK-1-4 Inhibitor I 0.053 | [9] -0.142 | ralimetinib 0.054 | [10] -0.226 | [11] 0.072 | [13] -0.061 | [14] 0.008 | [15] 0 | [16] 0.125

GBA2 (UniProt Q9HCG7)
inactive: erlotinib -0.088 | [2] 0.063 | [4] 0.035 | [5] -0.055 | [7] 0.007 | [8] 0.041 | IRAK-1-4 Inhibitor I 0.01 | ibrutinib -0.071 | [9] -0.046 | ralimetinib 0.082 | [10] -0.097 | [11] 0.042 | [12] -0.037 | [13] 0.077 | [14] 0.004 | [15] 0.08 | [16] 0.021

GDE1 (UniProt Q9NZC3)
inactive: erlotinib 0.042 | [2] 0.02 | [4] -0.032 | [5] 0.097 | [7] 0.05 | [8] 0.027 | IRAK-1-4 Inhibitor I -0.01 | ibrutinib -0.047 | [9] -0.017 | ralimetinib 0.067 | [10] 0.026 | [11] 0.025 | [13] -0.038 | [14] -0.036 | [15] -0.122 | [16] -0.014

GDAP1 (UniProt Q8TB36)
inactive: erlotinib 0.074 | [1] -0.002 | [2] 0.002 | [3] -0.115 | [4] -0.021 | [5] -0.154 | [6] -0.221 | [7] 0.24 | [8] -0.087 | IRAK-1-4 Inhibitor I 0.125 | ibrutinib -0.003 | [9] -0.022 | ralimetinib 0.127 | [10] -0.157 | [11] -0.101 | [13] 0.065 | [14] -0.025 | [15] 0.079 | [16] -0.001

Reference: the supplement of paper PMC10849652
